The values that follow come from PubChem BioAssay AID493014 (National Center for Advancing Translational Sciences (NCATS), 2011).

The list shows a part of the results. The main result of the screen is listed elsewhere. These columns were measured beside it and carry no call. Compounds called inactive in the main read-out are mostly missing here. Words in brackets tell the shape of the fitted curve; partial curves, single points and poor fits give uncertain potencies.

The assay is described as follows: qHTS Assay to Find Inhibitors of Chronic Active B-Cell Receptor Signaling. Conditions: ABC-DLBCL IkBa-CBG/CBR reporter, luminescence ratio (green luciferase fused to IkBa over red control in TMD8 lymphoma cells), 4 h. The method, boiled down:
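Doxycycline induced both beetle luciferases in TMD8 lymphoma cells; IKK-driven degradation limits the IkappaBalpha-fused green signal, while red luminescence normalises for cell number and nonspecific effects. Compounds tested up to 46 uM, 4 hrs.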
Background: qHTS replaces the single test concentration by a dilution series.

[1] abbreviates: measured here: CBR red luminescence, cell number.
Where [2] appears, read: measured here: IkBa-CBG green luminescence.

Regarding `O=C(Nc1cccn(Cc2c(Cl)cccc2Cl)c1=O)c1ccccc1Cl`, the AC50 under setting [1] is 0.501 µM [rising, full curve, poor fit].

For `COc1cc2c(cc1OC)CN(Cc1nc3ccsc3c(=O)[nH]1)CC2`, the AC50 under setting [1] is 18.4 µM [rising, single point].

For `N#CC1=C(S)N(c2ccccc2)C(c2ccc(-c3ccccc3Cl)o2)NC1=O` (stereo not given), under setting [2], the AC50 is 18.4 µM [falling, single point].

With `COc1ccccc1NC(=O)Nc1ccc2c(c1)nnn2C`, the AC50 under setting [1] is 2.31 µM [falling, partial curve].

Consider `NC(=O)C1CCN(c2nc(-c3ccccc3N)cs2)CC1`, for which the AC50 under setting [1] is 0.651 µM [rising, full curve].

As to `O=C(NC(=S)Nc1nc2ccccc2s1)c1ccco1`, the concentration at half-maximal activity (AC50) under setting [1] was 3.66 µM [falling, full curve].

As to `Cc1ccc(C)c(Nc2cc(C)nc(-c3ccccc3O)n2)c1`, the concentration at half-maximal activity (AC50) under setting [1] was 8.91 µM [falling, partial curve].

On to `CC(C)c1ccc(/C=N/N2CCN(c3ccccn3)CC2)cc1`, for which the AC50 under setting [1] was 0.126 µM [rising, full curve, poor fit].

In the case of `CCCCNC(=S)NNC(=O)CCn1nc(C)c(Br)c1C`, the AC50 by setting is: under setting [1], 15.8 µM [rising, single point]; under setting [2], 10 µM [falling, partial curve].

In the case of `O=C(c1ccc(Br)o1)N1CCc2ccccc21`, the AC50 under setting [1] was 2.82 µM [rising, single point].

`CC#CCN1c2ccccc2[C@]23C[C@@H](C(=O)OC)N(C(=O)OCC)C2=NC(C(=O)OC)=C(C(=O)OC)[C@H]13`: the AC50 under setting [1] is 6.31 µM [rising, partial curve, poor fit].

Consider `O=C(NCc1cccs1)C(=O)NCC1OCCCN1S(=O)(=O)c1ccccc1` (stereo not given), for which the AC50 under setting [1] was 4.61 µM [rising, partial curve].

Regarding `O=C(NCCc1ccccn1)c1ccc(COc2ccccc2)o1`, the half-maximal activity concentration (AC50) under setting [1] was 0.58 µM [falling, single point].

As for `O=C(NCc1ccccc1)C(=O)Nc1nc(-c2ccccc2)cs1`, under setting [1], the AC50 was 11.2 µM [rising, partial curve, poor fit].

`O=C(N/N=C/c1cn(-c2ccccc2)nc1-c1cccs1)c1ccc(Cl)cc1`: the half-maximal activity concentration (AC50) under setting [1] is 1.84 µM [rising, partial curve, poor fit].

Regarding `COc1ccc(C(=O)Nc2nccs2)cc1OC`, the half-maximal activity concentration (AC50) under setting [1] is 25.9 µM [falling, partial curve, poor fit].

On to `O=Cc1ccc(-c2nc3ccccc3s2)o1`, for which the AC50 under setting [1] was 1.26 µM [rising, partial curve] and the concentration at half-maximal activity (AC50) under setting [2] is 6.31 µM [rising, partial curve, poor fit].

On to `CC(C)(C)C(=O)CN1C(=O)C2(OCCO2)c2ccccc21`, for which the AC50 under setting [1] was 3.16 µM [rising, full curve, poor fit].

By AC50 is commonly meant the concentration giving half of the maximal activity seen.
